Inhibition data for two compounds are collected here from PubChem BioAssay AID1856 (The Scripps Research Institute Molecular Screening Center, 2009).

In all, about 1,300 compounds went through this assay and fewer than 10 were called active. How the calls were made is not given here. Only a part is listed here, and it is no random draw.

The test system of the assay is metallo-beta-lactamase IMP-1 (Pseudomonas aeruginosa). Kind of assay: IMP-1 enzyme inhibition by VIM-2 hits – biochemical, epi-absorbance readout, triplicate, selectivity assay for selective VIM-2 inhibitor project, confirmation (AID 1856).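 Further: 0% = enzyme with vehicle and 100% = vehicle without enzyme.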 Conditions: purified IMP-1, nitrocefin hydrolysis, epi-absorbance fluorescence; at 5.6 µM; active compounds read high.
Consider `Cc1cc(OCc2cc(C(=O)O)oc2C)c2c3c(c(=O)oc2c1)CCCC3`, for which the inhibition (in general, the drop in the measured response relative to a control, in per cent) was inactive: -1.08%.
With `Cc1cc(=O)oc2c(C)c(OCC(=O)N3CCN(Cc4ccc5c(c4)OCO5)CC3)ccc12`, the inhibition was inactive: -3.26%.
